Taken from: PubChem BioAssay AID1159578 (Peter MacCallum Cancer Centre, 2015)

Purpose: 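Knock-downs that alter how fast lymphatic endothelial cells migrate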 (primary screen)
Cell system: human lymphatic endothelial cells
Knock-down reagent: siRNA pool against human genes, 40 nM
Duration: 48 h after transfection
Measurement: 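Cells stained with dye and imaged after a scratch; covered wound area and nuclei counted, duplicates averaged, migration set against mock wells and turned into a robust z-score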
Direction: migration robust z-score: higher = faster migration into the scratch; migration relative to mock: higher = more scratch area covered than mock; nuclei per well: higher = more cells in the well
Active means: 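Pools averaging fewer than 3300 nuclei are never called; remaining pools count as changed when migration robust z lies outside -2 to 2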
Meaning of the calls: active = migration changed; inactive = no migration change, or too few cells
In all, the deposit lists about 18,000 reagents; shown is a part drawn at random. About 1,030 of them (5.7%) were called active. 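Inactive calls also include pools with fewer than 3300 nuclei, whose migration was not assessed.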 The raw values are shown without normalisation. A number with no mark means an inactive call. Reagent sequences are not shown.

| gene | migration robust z-score | migration class with cell-count check | migration relative to mock | nuclei per well, duplicate mean |
| --- | --- | --- | --- | --- |
| FOLR1 | 0.11 | migration z between -2 and 2; enough cells | 0.82 | 3734 |
| IL5RA | 0.6 | migration z between -2 and 2; enough cells | 0.92 | 7358 |
| PEX16 | 1.24 | migration z between -2 and 2; enough cells | 1.21 | 5656 |
| SCARA5 | -2.21 (active) | migration z below -2; enough cells | 0.31 | 5019 |
| ZNF790 | -0.84 | migration z between -2 and 2; enough cells | 0.66 | 7008 |
| RGS1 | -0.3 | migration z between -2 and 2; enough cells | 0.8 | 4334 |
| RIT2 | -0.47 | migration z between -2 and 2; enough cells | 0.72 | 6116 |
| P2RY13 | 0.57 | migration z between -2 and 2; enough cells | 0.92 | 5989 |
| RPL3L | -0.52 | migration z between -2 and 2; enough cells | 0.75 | 5129 |
| AFMID | 0.64 | migration z between -2 and 2; enough cells | 1.05 | 5840 |
| SPTB | -0.31 | migration z between -2 and 2; enough cells | 0.8 | 6253 |
| OTOP2 | -0.98 | migration z between -2 and 2; enough cells | 0.63 | 5345 |
| ATP6V0D2 | -0.26 | migration z between -2 and 2; enough cells | 0.76 | 5096 |
| PLA2G12B | -2.15 (active) | migration z below -2; enough cells | 0.39 | 5928 |
| APOA2 | -2.62 (active) | migration z below -2; enough cells | 0.3 | 3960 |
| SERPINA12 | 0.5 | migration z between -2 and 2; enough cells | 1.02 | 5166 |
| CTBP2 | -1.66 | migration z between -2 and 2; enough cells | 0.48 | 6814 |
| CIBAR2 | -1.15 | migration z between -2 and 2; enough cells | 0.59 | 6050 |
| ALDH3A2 | 0.55 | migration z between -2 and 2; enough cells | 0.91 | 5712 |
| PGLYRP3 | -0.91 | migration z between -2 and 2; enough cells | 0.63 | 5492 |
| SLC23A2 | -0.66 | migration z between -2 and 2; enough cells | 0.72 | 7052 |
| RNF151 | -1.4 | migration z between -2 and 2; enough cells | 0.53 | 3891 |
| KLK6 | -1.35 | migration z between -2 and 2; enough cells | 0.54 | 3963 |
| TOE1 | -0.4 | migration z between -2 and 2; enough cells | 0.78 | 4753 |
| APOL3 | 0.65 | migration z between -2 and 2; enough cells | 0.93 | 4914 |
| CXCR1 | -0.76 | migration z between -2 and 2; enough cells | 0.66 | 5436 |
| HIVEP3 | -0.08 | migration z between -2 and 2; enough cells | 0.79 | 5676 |
| MLXIPL | 0 | migration z between -2 and 2; enough cells | 0.8 | 5776 |
| CFAP184 | 0.74 | migration z between -2 and 2; enough cells | 1.08 | 5793 |
| LOC728919 (retired record) | 1.53 | migration z between -2 and 2; enough cells | 1.1 | 5928 |
| RPL10 | -0.34 | migration z between -2 and 2; enough cells | 0.8 | 5106 |
| COX6C | 0.42 | migration z between -2 and 2; enough cells | 0.88 | 7378 |
| COPZ1 | -0.62 | migration z between -2 and 2; enough cells | 0.72 | 5862 |
| RNF157 | 0.07 | migration z between -2 and 2; enough cells | 0.82 | 3346 |
| PPP6C | -0.64 | migration z between -2 and 2; enough cells | 0.68 | 5978 |
| REXO2 | -0.68 | migration z between -2 and 2; enough cells | 0.68 | 6730 |
| C18orf54 | 1.05 | migration z between -2 and 2; enough cells | 1.16 | 5868 |
| AIM2 | -0.58 | migration z between -2 and 2; enough cells | 0.73 | 6010 |
| SEMA5B | 0.68 | migration z between -2 and 2; enough cells | 1.06 | 6992 |

Taken from above.
Under “migration class with cell-count check”, IL5RA has migration z between -2 and 2; enough cells
AFMID, nuclei per well, duplicate mean = 5840
ZNF790, nuclei per well, duplicate mean: 7008
PLA2G12B, migration robust z-score = -2.15 (active)
